{"source": "paper doi:10.1101/2021.08.25.457662", "key": {"[1]": {"biological_target": "T1, caspase-11 (co-IP of Fig. 1F) (mouse) (UniProt P70343)", "T1 sequence": "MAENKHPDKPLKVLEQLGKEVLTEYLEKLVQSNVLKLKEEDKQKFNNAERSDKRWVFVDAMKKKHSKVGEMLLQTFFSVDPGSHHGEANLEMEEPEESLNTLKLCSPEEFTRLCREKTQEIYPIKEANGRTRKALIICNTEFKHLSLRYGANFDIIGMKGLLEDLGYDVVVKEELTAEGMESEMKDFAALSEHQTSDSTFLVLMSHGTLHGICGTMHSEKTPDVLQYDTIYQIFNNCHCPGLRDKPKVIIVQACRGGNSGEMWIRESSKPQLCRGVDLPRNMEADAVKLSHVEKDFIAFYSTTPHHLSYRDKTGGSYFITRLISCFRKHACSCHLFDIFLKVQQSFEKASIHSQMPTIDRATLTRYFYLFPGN", "assay": "co-IP"}, "[2]": {"biological_target": "T2, recombinant Flag-caspase-11 (mouse) (UniProt P70343)", "T2 sequence": "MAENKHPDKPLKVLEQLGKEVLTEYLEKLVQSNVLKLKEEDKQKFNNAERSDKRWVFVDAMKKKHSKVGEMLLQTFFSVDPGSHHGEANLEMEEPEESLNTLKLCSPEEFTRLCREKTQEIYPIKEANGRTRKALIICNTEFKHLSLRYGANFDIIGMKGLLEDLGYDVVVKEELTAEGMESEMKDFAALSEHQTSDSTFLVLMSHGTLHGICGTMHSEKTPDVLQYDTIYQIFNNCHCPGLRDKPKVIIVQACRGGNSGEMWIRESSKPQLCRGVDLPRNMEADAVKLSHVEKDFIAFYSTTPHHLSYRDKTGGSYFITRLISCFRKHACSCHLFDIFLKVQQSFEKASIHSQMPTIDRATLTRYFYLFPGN", "assay": "co-IP"}, "Gsdmd-N-GFP (mouse) [3]": {"biological_target": "T3, Gsdmd-N-GFP (mouse) (UniProt Q9D8T2)", "T3 sequence": "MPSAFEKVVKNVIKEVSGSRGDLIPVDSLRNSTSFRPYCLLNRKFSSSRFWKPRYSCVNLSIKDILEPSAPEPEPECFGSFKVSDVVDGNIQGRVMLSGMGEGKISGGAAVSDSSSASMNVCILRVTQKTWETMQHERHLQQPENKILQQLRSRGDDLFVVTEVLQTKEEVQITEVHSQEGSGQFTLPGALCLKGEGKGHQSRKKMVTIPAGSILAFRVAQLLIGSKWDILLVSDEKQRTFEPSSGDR", "assay": "non-reducing PAGE and immunoblot"}, "[4]": {"biological_target": "endogenous Gsdmd-N (mouse (endogenous in BMDMs)) (UniProt Q9D8T2)", "assay": "native gel or EMSA"}, "[5]": {"biological_target": "endogenous Gsdmd-N (mouse (endogenous in BMDMs)) (UniProt Q9D8T2)", "assay": "native gel or EMSA", "remark": "listed apart in the source"}, "Gsdmd-N-GFP (mouse) [6]": {"biological_target": "T3, Gsdmd-N-GFP (mouse)", "assay": "co-IP"}, "Gsdmd-N-GFP (mouse) [7]": {"biological_target": "T3, Gsdmd-N-GFP (mouse)", "assay": "co-IP", "remark": "listed apart in the source"}, "HA-Gsdmd C-term (mouse)": {"biological_target": "T4, HA-Gsdmd C-term (mouse) (UniProt Q9D8T2)", "T4 sequence": "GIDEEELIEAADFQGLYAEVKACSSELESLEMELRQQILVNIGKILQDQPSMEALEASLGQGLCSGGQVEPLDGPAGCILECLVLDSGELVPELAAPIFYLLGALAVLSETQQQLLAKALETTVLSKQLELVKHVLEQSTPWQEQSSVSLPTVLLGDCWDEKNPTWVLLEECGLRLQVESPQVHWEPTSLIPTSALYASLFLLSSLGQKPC", "assay": "co-IP"}}, "note": "Where two headings read alike, the source gives them in different places. These are yes or no findings as the source states them, for the method shown. For some of these results: In cells and extracts the contact can be indirect. Some results given as binding are weak or reduced against the parent protein; the word gives no strength. For some of these results: Tags and fused reporters may be left off the sequences shown."}
{"binder": "Gbp2 (co-IP of Fig. 1F) (protein, UniProt Q9Z0E6 1-589) MASEIHMSEPMCLIENTEAQLVINQEALRILSAITQPVVVVAIVGLYRTGKSYLMNKLAGKRTGFSLGSTVQSHTKGIWMWCVPHPKKAGQTLVLLDTEGLEDVEKGDNQNDCWIFALAVLLSSTFIYNSIGTINQQAMDQLHYVTELTDLIKSKSSPDQSGVDDSANFVGFFPTFVWTLRDFSLELEVNGKPVTSDEYLEHSLTLKKGADKKTKSFNEPRLCIRKFFPKRKCFIFDRPAQRKQLSKLETLREEELCGEFVEQVAEFTSYILSYSSVKTLCGGIIVNGPRLKSLVQTYVGAISNGSLPCMESAVLTLAQIENSAAVQKAITHYEEQMNQKIQMPTETLQELLDLHRPIESEAIEVFLKNSFKDVDQKFQTELGNLLVAKRDAFIKKNMDVSSARCSDLLEDIFGPLEEEVKLGTFSKPGGYYLFLQMRQELEKKYNQAPGKGLQAEAMLKNYFDSKADVVETLLQTDQSLTEAAKEVEEERTKAEAAEAANRELEKKQKEFELMMQQKEKSYQEHVKKLTEKMKDEQKQLLAEQENIIAAKLREQEKFLKEGFENESKKLIREIDTLKQNKSSGKCTIL", "values": [{"measurement": "binding", "setting": "[1]", "value": "binds"}]}
{"binder": "recombinant Myc-Gbp2 (protein, UniProt Q9Z0E6 1-589) MASEIHMSEPMCLIENTEAQLVINQEALRILSAITQPVVVVAIVGLYRTGKSYLMNKLAGKRTGFSLGSTVQSHTKGIWMWCVPHPKKAGQTLVLLDTEGLEDVEKGDNQNDCWIFALAVLLSSTFIYNSIGTINQQAMDQLHYVTELTDLIKSKSSPDQSGVDDSANFVGFFPTFVWTLRDFSLELEVNGKPVTSDEYLEHSLTLKKGADKKTKSFNEPRLCIRKFFPKRKCFIFDRPAQRKQLSKLETLREEELCGEFVEQVAEFTSYILSYSSVKTLCGGIIVNGPRLKSLVQTYVGAISNGSLPCMESAVLTLAQIENSAAVQKAITHYEEQMNQKIQMPTETLQELLDLHRPIESEAIEVFLKNSFKDVDQKFQTELGNLLVAKRDAFIKKNMDVSSARCSDLLEDIFGPLEEEVKLGTFSKPGGYYLFLQMRQELEKKYNQAPGKGLQAEAMLKNYFDSKADVVETLLQTDQSLTEAAKEVEEERTKAEAAEAANRELEKKQKEFELMMQQKEKSYQEHVKKLTEKMKDEQKQLLAEQENIIAAKLREQEKFLKEGFENESKKLIREIDTLKQNKSSGKCTIL", "values": [{"measurement": "binding", "setting": "[2]", "value": "binds"}]}
{"binder": "Gsdmd-N-GFP (domain or fragment, UniProt Q9D8T2 1-248) MPSAFEKVVKNVIKEVSGSRGDLIPVDSLRNSTSFRPYCLLNRKFSSSRFWKPRYSCVNLSIKDILEPSAPEPEPECFGSFKVSDVVDGNIQGRVMLSGMGEGKISGGAAVSDSSSASMNVCILRVTQKTWETMQHERHLQQPENKILQQLRSRGDDLFVVTEVLQTKEEVQITEVHSQEGSGQFTLPGALCLKGEGKGHQSRKKMVTIPAGSILAFRVAQLLIGSKWDILLVSDEKQRTFEPSSGDR", "values": [{"measurement": "binding", "setting": "Gsdmd-N-GFP (mouse) [3]", "value": "binds"}]}
{"binder": "endogenous Gsdmd-N (domain or fragment, UniProt Q9D8T2 1-276) MPSAFEKVVKNVIKEVSGSRGDLIPVDSLRNSTSFRPYCLLNRKFSSSRFWKPRYSCVNLSIKDILEPSAPEPEPECFGSFKVSDVVDGNIQGRVMLSGMGEGKISGGAAVSDSSSASMNVCILRVTQKTWETMQHERHLQQPENKILQQLRSRGDDLFVVTEVLQTKEEVQITEVHSQEGSGQFTLPGALCLKGEGKGHQSRKKMVTIPAGSILAFRVAQLLIGSKWDILLVSDEKQRTFEPSSGDRKAVGQRHHGLNVLAALCSIGKQLSLLSD", "values": [{"measurement": "binding", "setting": "[4]", "value": "binds"}, {"measurement": "binding", "setting": "[5]", "value": "no binding (condition: Gbp3^-/^- BMDMs)"}]}
{"binder": "Gbp1 (co-IP of Fig. 1F) (protein, UniProt Q01514 1-589) MASEIHMSEPMCLIENTEAQLVINQEALRILSAITQPVVVVAIVGLYRTGKSYLMNKLAGKRTGFSLGSTVQSHTKGIWMWCVPHPKKAGQTLVLLDTEGLEDVEKGDNQNDCWIFALAVLLSSTFIYNSIGTINQQAMDQLHYVTELTDLIKSKSSPDQSDVDNSANFVGFFPIFVWTLRDFSLDLEFDGESITPDEYLETSLALRKGTDENTKKFNMPRLCIRKFFPKRKCFIFDRPGDRKQLSKLEWIQEDQLNKEFVEQVAEFTSYIFSYSGVKTLSGGITVNGPRLKSLVQTYVSAICSGELPCMENAVLTLAQIENSAAVQKAITYYEEQMNQKIHMPTETLQELLDLHRTCEREAIEVFMKNSFKDVDQKFQEELGAQLEAKRDAFVKKNMDMSSAHCSDLLEGLFAHLEEEVKQGTFYKPGGYYLFLQRKQELEKKYIQTPGKGLQAEVMLRKYFESKEDLADTLLKMDQSLTEKEKQIEMERIKAEAAEAANRALAEMQKKHEMLMEQKEQSYQEHMKQLTEKMEQERKELMAEQQRIISLKLQEQERLLKQGFQNESLQLRQEIEKIKNMPPPRSCTIL", "values": [{"measurement": "binding", "setting": "[1]", "value": "no binding"}]}
{"binder": "Gbp3 (co-IP of Fig. 1F) (protein, UniProt Q61107 1-620) MEAPICLVENWKNQLTVNLEAIRILEQIAQPLVVVAIVGLYRTGKSYLMNRLAGRNHGFSLGSTVQSETKGIWMWCVPHPTKPTHTLVLLDTEGLGDVEKGDPKNDSWIFALAVLLSSTFVYNSMSTINQQALEQLHFVTELTQLIRAKSSPREDKVKDSSEFVGFFPDFIWAVRDFALELKLNGRPITEDEYLENALKLIQGDNLKVQQSNMTRECIRYFFPVRKCFVFDRPTSDKRLLLQIENVPENQLERNFQVESEKFCSYIFTNGKTKTLRGGVIVTGNRLGTLVQTYVNAINSGTVPCLENAVTTLAQRENSIAVQKAADHYSEQMAQRMRLPTDTLQELLTVHAACEKEAIAVFMEHSFKDDEQEFQKKLVVTIEERKEEFIRQNEAASIRHCQAELERLSESLRKSISCGAFSVPGGHSLYLEARKKIELGYQQVLRKGVKAKEVLKSFLQSQAIMEDSILQSDKALTDGERAIAAERTKKEVAEKELELLRQRQKEQEQVMEAQERSFRENIAKLQEKMESEKEMLLREQEKMLEHKLKVQEELLIEGFREKSDMLKNEISHLREEMERTRRKPSLFGQILDTIGNAFIMILPGAGKLFGVGLKFLGSLSS", "values": [{"measurement": "binding", "setting": "[1]", "value": "no binding"}]}
{"binder": "RFP-Gbp3^S46N (protein, UniProt Q61107 1-620) MEAPICLVENWKNQLTVNLEAIRILEQIAQPLVVVAIVGLYRTGKNYLMNRLAGRNHGFSLGSTVQSETKGIWMWCVPHPTKPTHTLVLLDTEGLGDVEKGDPKNDSWIFALAVLLSSTFVYNSMSTINQQALEQLHFVTELTQLIRAKSSPREDKVKDSSEFVGFFPDFIWAVRDFALELKLNGRPITEDEYLENALKLIQGDNLKVQQSNMTRECIRYFFPVRKCFVFDRPTSDKRLLLQIENVPENQLERNFQVESEKFCSYIFTNGKTKTLRGGVIVTGNRLGTLVQTYVNAINSGTVPCLENAVTTLAQRENSIAVQKAADHYSEQMAQRMRLPTDTLQELLTVHAACEKEAIAVFMEHSFKDDEQEFQKKLVVTIEERKEEFIRQNEAASIRHCQAELERLSESLRKSISCGAFSVPGGHSLYLEARKKIELGYQQVLRKGVKAKEVLKSFLQSQAIMEDSILQSDKALTDGERAIAAERTKKEVAEKELELLRQRQKEQEQVMEAQERSFRENIAKLQEKMESEKEMLLREQEKMLEHKLKVQEELLIEGFREKSDMLKNEISHLREEMERTRRKPSLFGQILDTIGNAFIMILPGAGKLFGVGLKFLGSLSS", "values": [{"measurement": "binding", "setting": "Gsdmd-N-GFP (mouse) [6]", "value": "no binding"}, {"measurement": "binding", "setting": "Gsdmd-N-GFP (mouse) [7]", "value": "no binding"}]}
{"binder": "Myc-Flag-Gbp3 (protein, UniProt Q61107 1-620) MEAPICLVENWKNQLTVNLEAIRILEQIAQPLVVVAIVGLYRTGKSYLMNRLAGRNHGFSLGSTVQSETKGIWMWCVPHPTKPTHTLVLLDTEGLGDVEKGDPKNDSWIFALAVLLSSTFVYNSMSTINQQALEQLHFVTELTQLIRAKSSPREDKVKDSSEFVGFFPDFIWAVRDFALELKLNGRPITEDEYLENALKLIQGDNLKVQQSNMTRECIRYFFPVRKCFVFDRPTSDKRLLLQIENVPENQLERNFQVESEKFCSYIFTNGKTKTLRGGVIVTGNRLGTLVQTYVNAINSGTVPCLENAVTTLAQRENSIAVQKAADHYSEQMAQRMRLPTDTLQELLTVHAACEKEAIAVFMEHSFKDDEQEFQKKLVVTIEERKEEFIRQNEAASIRHCQAELERLSESLRKSISCGAFSVPGGHSLYLEARKKIELGYQQVLRKGVKAKEVLKSFLQSQAIMEDSILQSDKALTDGERAIAAERTKKEVAEKELELLRQRQKEQEQVMEAQERSFRENIAKLQEKMESEKEMLLREQEKMLEHKLKVQEELLIEGFREKSDMLKNEISHLREEMERTRRKPSLFGQILDTIGNAFIMILPGAGKLFGVGLKFLGSLSS", "values": [{"measurement": "binding", "setting": "HA-Gsdmd C-term (mouse)", "value": "no binding"}]}
